Variants at the background level are over-represented here.
B1: tRNA (parent)
chain: GUUCCGUUGGCGUAAUGGUAACGCGUCUCCCUCCUAAGGAGAAGACUGCGGGUUCGAGUCCCGUACGGAACG

Variants of: B1
Assay: yeast fitness relative to wild type (ratio to wild type); higher = fitter; tRNA-Arg(CCU), competitive growth, 37 C, YPD
Summary of the method: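 Variants of the tRNA-Arg(CCU) gene, chemically synthesised with a 3% per-site mutation rate at 69 sites, were placed at the native genomic locus in Saccharomyces cerevisiae. The pooled strains were competed in YPD at 37°C for 24 hours in six parallel replicates. Gene amplicons from the start population and from each end population were read by 100-nucleotide paired-end sequencing. Darwinian fitness relative to wild type came from changes in genotype frequencies; genotypes needed ≥ 100 starting reads, and estimates < 0.5 were set to 0.5.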

Compared with C4U U64G C66A, A42G A69C is higher in yeast fitness: no more than 0.5 for the first, 0.95 for the second.

C5U C31G C33G C34U A43C A57C and G18A A20U G56A cannot be ordered by yeast fitness: no more than 0.5 for the first, no more than 0.5 for the second.

U8G U32C C66U and G12C U16A C49G G67C cannot be ordered by yeast fitness: no more than 0.5 for the first, no more than 0.5 for the second.

G38A G50C A57G and C11G A15U A21G C30U cannot be ordered by yeast fitness: no more than 0.5 for the first, no more than 0.5 for the second.

C29G C33U C66U and C5G G9A C61U cannot be ordered by yeast fitness: no more than 0.5 for the first, no more than 0.5 for the second.

C11U A14C C22G C27G and C11A A15C C24A C31G G58C G67C cannot be ordered by yeast fitness: no more than 0.5 for the first, no more than 0.5 for the second.

U28A C29G C33A A42U and C4G G18C A43C U53A cannot be ordered by yeast fitness: no more than 0.5 for the first, no more than 0.5 for the second.

First: A21G G25C C27G A42C G63C A65U
Second: C46G G67A
The yeast fitness of the first is lower: no more than 0.5 for the first, 0.912 for the second.

G25C C33A G68A and U32G G38A G56C cannot be ordered by yeast fitness: no more than 0.5 for the first, no more than 0.5 for the second.

C5U U8A G18A C66A and A14C C24A C31A C66A cannot be ordered by yeast fitness: no more than 0.5 for the first, no more than 0.5 for the second.

Compared with U7A G10A A15U, C27G C30G C66A is lower in yeast fitness: 0.568 for the first, no more than 0.5 for the second.

C5G C22G U54C and U13C G23C G38A C61U cannot be ordered by yeast fitness: no more than 0.5 for the first, no more than 0.5 for the second.

C31G C34G A40U and A15G G41C A43C cannot be ordered by yeast fitness: no more than 0.5 for the first, no more than 0.5 for the second.

Compared with A36C C46U U53A, C24U C33G C34U A57U is lower in yeast fitness: 0.639 for the first, 0.583 for the second.

Compared with C11A U16C U32G C49G, U3G C27A is higher in yeast fitness: no more than 0.5 for the first, 0.633 for the second.

Compared with G23A C46U A65C, G10C G18A C22U is higher in yeast fitness: 0.54 for the first, 0.633 for the second.

Compared with A57C G67C, C4G C11G C29A A40G C62A is lower in yeast fitness: 0.707 for the first, no more than 0.5 for the second.

A14G C29G A37G C46U C66G and A14C C24U A40U G44A cannot be ordered by yeast fitness: no more than 0.5 for the first, no more than 0.5 for the second.

Going from A20G C30A G48A U64C to U32C G52C, the yeast fitness rises from no more than 0.5 to 0.602.

Going from U16C A43G U59C to G39C C49G C66U, the yeast fitness falls from 0.609 to no more than 0.5.

A15G C29G C30G G44A and U3C G18A C46U G50U G67A cannot be ordered by yeast fitness: no more than 0.5 for the first, no more than 0.5 for the second.

Compared with U8C A45U A65U, C24G G25C C34G is lower in yeast fitness: 0.709 for the first, no more than 0.5 for the second.

U3A C4U C33G C34G G44A G48C C55G A69U and G18C U54A A57C cannot be ordered by yeast fitness: no more than 0.5 for the first, no more than 0.5 for the second.

G12A G50C G67A G68A and U2A A21C C29U cannot be ordered by yeast fitness: no more than 0.5 for the first, no more than 0.5 for the second.

Compared with U8A C61G, U32C U47A is higher in yeast fitness: no more than 0.5 for the first, 0.9 for the second.

First: A15U A21C
Second: U2G U35G A45G C49G U59C C60U A69C
The yeast fitness of the first is lower: 0.611 for the first, 0.618 for the second.

G6A C11A A40G and U2A A14U G56A cannot be ordered by yeast fitness: no more than 0.5 for the first, no more than 0.5 for the second.

U26C C62G G63A and C29U C30G C31G A65C cannot be ordered by yeast fitness: no more than 0.5 for the first, no more than 0.5 for the second.

G12A C31U C55G and C33G C34U C61U G67A G68C cannot be ordered by yeast fitness: no more than 0.5 for the first, no more than 0.5 for the second.

C30U U47A A57G and U16A C30U A42U U64C cannot be ordered by yeast fitness: no more than 0.5 for the first, no more than 0.5 for the second.

U7C A21C G50C G63C and G39A G51C C62A A70U cannot be ordered by yeast fitness: no more than 0.5 for the first, no more than 0.5 for the second.

Compared with G17A A21C, U35G U64C A65U is lower in yeast fitness: 0.67 for the first, no more than 0.5 for the second.

Compared with U7A A20C C29U U32C C33G, A15G A42C C49A is higher in yeast fitness: no more than 0.5 for the first, 0.527 for the second.

C5U A40C G48C and A20U C22A U35G A43G A70U cannot be ordered by yeast fitness: no more than 0.5 for the first, no more than 0.5 for the second.

C5G C29U G38C C61G and C11G U16C A21U C30G G50C cannot be ordered by yeast fitness: no more than 0.5 for the first, no more than 0.5 for the second.

U32G C34U C46U A57G and U19A A37U G41C C60A cannot be ordered by yeast fitness: no more than 0.5 for the first, no more than 0.5 for the second.

Compared with U26A A42C A45G C49U C66U, U26G C49G is higher in yeast fitness: no more than 0.5 for the first, 0.851 for the second.

G12A U19G U35C A40U G58A G68A and A14C A20G A36G C55U G68C cannot be ordered by yeast fitness: no more than 0.5 for the first, no more than 0.5 for the second.

First: C11G C33G A37U A45U
Second: A15G C24U G38C A40G
The yeast fitness of the first is higher: 0.64 for the first, no more than 0.5 for the second.

U3A C5U C31A and A20G C49U C60A A70C cannot be ordered by yeast fitness: no more than 0.5 for the first, no more than 0.5 for the second.

First: G10A U16A G44A A65G
Second: C30A G67C
The yeast fitness of the first is lower: no more than 0.5 for the first, 0.841 for the second.

A15U C29U C31A A37G U47A and A37G U53A A57C cannot be ordered by yeast fitness: no more than 0.5 for the first, no more than 0.5 for the second.

From the RNAGym collection of RNA variant scans (doi:10.1126/science.aae0568)
